Screening data, single-dose tests

Sequences of proteins named here, by UniProt entry; tags and fusion partners are left off.
UniProt P9WPC5, whole entry: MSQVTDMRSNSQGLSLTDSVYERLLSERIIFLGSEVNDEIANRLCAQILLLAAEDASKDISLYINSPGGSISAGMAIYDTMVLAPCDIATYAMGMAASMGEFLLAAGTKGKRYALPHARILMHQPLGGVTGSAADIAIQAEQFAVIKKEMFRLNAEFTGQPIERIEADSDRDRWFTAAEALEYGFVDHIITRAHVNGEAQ
UniProt P9WPC3, whole entry partner: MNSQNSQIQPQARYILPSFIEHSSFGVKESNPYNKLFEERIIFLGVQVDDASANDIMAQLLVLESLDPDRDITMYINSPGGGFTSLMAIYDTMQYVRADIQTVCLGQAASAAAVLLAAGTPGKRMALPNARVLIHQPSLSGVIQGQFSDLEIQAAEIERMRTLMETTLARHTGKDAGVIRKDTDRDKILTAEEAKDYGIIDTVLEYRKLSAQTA
UniProt I6X8D2, whole entry: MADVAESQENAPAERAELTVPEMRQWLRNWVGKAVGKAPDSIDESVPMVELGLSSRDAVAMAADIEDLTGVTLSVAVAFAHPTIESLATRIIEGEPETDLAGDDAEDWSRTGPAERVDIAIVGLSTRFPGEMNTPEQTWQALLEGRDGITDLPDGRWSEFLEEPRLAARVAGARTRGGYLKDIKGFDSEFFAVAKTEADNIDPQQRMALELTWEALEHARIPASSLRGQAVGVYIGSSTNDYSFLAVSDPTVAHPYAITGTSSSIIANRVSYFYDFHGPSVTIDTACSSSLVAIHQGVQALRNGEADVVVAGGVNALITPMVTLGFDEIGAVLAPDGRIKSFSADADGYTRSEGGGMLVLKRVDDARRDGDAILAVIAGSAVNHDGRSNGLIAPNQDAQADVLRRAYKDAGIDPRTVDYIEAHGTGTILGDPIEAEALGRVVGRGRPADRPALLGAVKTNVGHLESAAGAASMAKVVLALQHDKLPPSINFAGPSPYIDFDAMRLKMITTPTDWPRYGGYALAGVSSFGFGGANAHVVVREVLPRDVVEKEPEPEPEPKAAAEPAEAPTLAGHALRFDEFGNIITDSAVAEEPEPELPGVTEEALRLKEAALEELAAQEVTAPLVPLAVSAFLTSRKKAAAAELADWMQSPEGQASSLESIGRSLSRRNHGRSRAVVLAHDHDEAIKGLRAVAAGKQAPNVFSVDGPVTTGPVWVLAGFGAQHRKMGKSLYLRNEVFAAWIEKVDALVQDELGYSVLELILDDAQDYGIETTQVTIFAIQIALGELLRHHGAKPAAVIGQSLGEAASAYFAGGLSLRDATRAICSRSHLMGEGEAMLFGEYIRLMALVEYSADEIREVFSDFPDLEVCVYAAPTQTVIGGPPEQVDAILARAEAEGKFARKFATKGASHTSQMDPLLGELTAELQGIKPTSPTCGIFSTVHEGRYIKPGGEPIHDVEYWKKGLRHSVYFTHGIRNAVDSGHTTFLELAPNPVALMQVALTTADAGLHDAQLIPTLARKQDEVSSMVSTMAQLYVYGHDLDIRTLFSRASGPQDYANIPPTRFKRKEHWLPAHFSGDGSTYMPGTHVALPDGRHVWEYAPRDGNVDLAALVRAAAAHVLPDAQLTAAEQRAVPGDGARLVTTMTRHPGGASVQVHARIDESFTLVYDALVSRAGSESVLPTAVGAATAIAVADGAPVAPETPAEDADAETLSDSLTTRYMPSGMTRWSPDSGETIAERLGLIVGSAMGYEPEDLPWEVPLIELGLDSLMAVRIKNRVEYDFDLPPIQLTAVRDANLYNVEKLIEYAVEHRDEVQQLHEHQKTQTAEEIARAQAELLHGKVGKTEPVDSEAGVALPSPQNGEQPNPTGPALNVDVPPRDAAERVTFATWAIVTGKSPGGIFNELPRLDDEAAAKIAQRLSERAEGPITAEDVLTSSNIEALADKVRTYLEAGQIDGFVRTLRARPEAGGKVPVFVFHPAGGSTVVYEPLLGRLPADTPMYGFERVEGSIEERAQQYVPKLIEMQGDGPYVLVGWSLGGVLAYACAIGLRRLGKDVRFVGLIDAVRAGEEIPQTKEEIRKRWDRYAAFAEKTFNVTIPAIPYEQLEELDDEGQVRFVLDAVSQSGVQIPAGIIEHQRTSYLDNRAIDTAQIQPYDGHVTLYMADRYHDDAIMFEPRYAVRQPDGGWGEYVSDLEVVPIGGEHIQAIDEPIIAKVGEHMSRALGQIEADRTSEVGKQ

From ChEMBL document CHEMBL3988442, “University of Dundee, Small-Polar-MMV Screening Library” (2021).

ClpP1P2: 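ClpP1P2, Mycobacterium tuberculosis (UniProt P9WPC5 and UniProt P9WPC3). Protease assay of ClpP1P2, read by the AMC dye that it sets free. Concentration: 50 µM. Higher reads as stronger inhibition, judged from the few compounds that gave an IC50. Most other retested compounds had strongly negative values. Size under these conditions: about 69,000 compounds, about 10 of them at 50% or above in at least one test.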
Pks13 thioesterase: 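Enzyme assay of the thioesterase domain of polyketide synthase 13; the read-out is not stated. Target: Polyketide synthase Pks13, Mycobacterium tuberculosis (UniProt I6X8D2). Compounds at 30 µM. The record gives no direction; the compounds picked for IC50 retests had high values, so higher reads as stronger inhibition. Size under these conditions: about 67,000 compounds, about 300 of them at 50% or above in at least one test.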

Values are the deposited “Percent Effect”, in %. The controls that fix the scale are not given in the record; negative values are as filed. This is an unselected part of the compounds tested. A dash means the value is not listed here; it may have been measured.

| SMILES | ClpP1P2 | Pks13 thioesterase |
|---|---|---|
| `O=C(c1ccnnc1)N1CCc2onc(CN3CCCC3)c2C1` | -4.447 | -34.49 |
| `COc1ccc(OCCCN2CCOC(Cn3cccn3)C2)cc1` (configuration not stated) | 3.655 | -2.704 |
| `NC(=O)C1CCN(C(C(=O)O)c2ccc(Cl)c(C(F)(F)F)c2)CC1` (configuration not stated) | 0.4878 | -2.496 |
| `Cc1cn2c(=O)c(-c3ccnc(N4CCC[C@@H]4CO)n3)cnc2s1` | -5.582 | 72.51 |
| `CNC(=O)CN1CCOCC2(C1)CN(C(=O)C(C)C)CCO2` (configuration not stated) | -0.3953 | 5.829 |
| `COc1ccc(CCNC(=O)NC2CCCC2)cc1OC` | 3.337 | -6.377 |
| `CN(C)C(=O)CN1CCC2(COCc3cnc(-c4ccccc4)nc32)C1` (configuration not stated) | 4.804 | -13.88 |
| `CS(=O)(=O)CCCNc1cccc(COC2CCCCC2)c1` | 3.225 | 12.51 |
| `CCS(=O)(=O)c1ccc(N2CCC(NC(=O)C3CCCCC3)CC2)cc1` | -3.28 | -4.789 |
| `COCCNC(=O)c1ccc2c(=O)n3c(nc2c1)CCCC3` | -1.338 | 7.099 |
| `COc1cc(Oc2cnc3ccccc3n2)ccc1CN1CCCC1` | -1.865 | - |
| `CCSCC(C)NCc1nn(C)c2ccc(C)cc12` (configuration not stated) | 7.024 | - |
| `CC(NC(=O)COc1ccc(Cl)cc1Cl)c1nncn1C(C)C` (configuration not stated) | -27.46 | -0.05186 |
| `CCn1/c(=N/C(=O)CSCC(=O)Nc2nccs2)sc2ccccc21` | 16.84 | -9.841 |
| `CN(Cc1ccsc1)Cc1nc(-c2cnccn2)no1` | -8.984 | -5.055 |
| `Cc1csc2ncc(-c3ccnc(N4CCCC[C@@H]4CO)n3)c(=O)n12` | -253.5 | -51.02 |
| `COCCC(=O)NCCCOC1CCCc2ccccc21` (configuration not stated) | -4.988 | -15.78 |
| `O=C1CSC(c2ccc3c(c2)OCO3)c2cnn(C3CCCCC3)c2N1` (configuration not stated) | -7.636 | -40.42 |
| `Cc1ccc(S(=O)(=O)NC(=O)CCc2cscn2)cc1Cl` | -4.506 | -5.769 |
| `CN(Cc1cnc(N)nc1)C(=O)C1CC(=O)N(Cc2ccncc2)C1` (configuration not stated) | 9.005 | - |
| `O=C(C1CCCC1)N1CC2(CCNC2)OCc2ccccc21` (configuration not stated) | -5.009 | -2.833 |
| `CN(Cc1ccc(N(C)C)cc1)C(=O)CSc1ccc(Br)cc1` | 8.695 | -7.285 |
| `COc1ccccc1-n1cc(C(=O)NCCCn2nc(C)nc2C)cn1` | -8.615 | 0.4748 |
| `CCn1ccnc1CN1CCCN(C(=O)c2cncnc2C)CC1` | -4.318 | 6.814 |
| `FC(F)(F)c1cc(NCCn2ncnn2)nc(-c2cccnc2)n1` | -0.5569 | 4.046 |
| `CC(=O)NCCOc1c(Cl)cccc1Cl` | 14.14 | -4.926 |
| `Cc1cccc(CN2CCC(c3nnc(-c4scnc4C)o3)CC2)c1` | 13.83 | -19.36 |
| `NC(=O)C1CCN(C(=O)NCc2ccc(-c3ccn[nH]3)cc2)CC1` | -32.63 | -1.224 |
| `Cc1ccccc1C1(CNC(=O)CCN2C(=O)CCC2=O)CC1` | -0.4847 | -1.527 |
| `CO[C@@H]1CCN(C(=O)c2cc(C)on2)C[C@@H]1Cc1ccccc1` | 12.33 | -52.7 |
| `COCCN1CCN(c2cccc(C)n2)Cc2ccc(C)nc21` | 1.995 | -8.967 |
| `O=C(O)C(c1ccc2c(c1)OCO2)N1CCCCCC1` (configuration not stated) | 8.345 | -17.87 |
| `CC(=O)Nc1ccc(CNCC(O)c2ccccc2)cc1` (configuration not stated) | 6.998 | 4.312 |
| `CN(CC(=O)NCC(O)c1cccc(F)c1)C(=O)OC(C)(C)C` (configuration not stated) | -11.75 | 0.04934 |
| `COCc1ncc(CN2CC[C@@H](NC(=O)c3cccnc3)[C@H](O)C2)cn1` | -3.737 | 7.251 |
| `CCOC(=O)CNC(=O)C1CN(C(=O)c2cnccn2)C1` | -3.107 | -18.03 |
| `CCS(=O)(=O)N1CCc2cc(C(=O)NC)c(NCC(C)C)nc2CC1` | -46.43 | -68.59 |
| `CCc1c(C)nc2n(c1=O)CC(C(=O)Nc1sccc1C(=O)OC)CS2` (configuration not stated) | -9.596 | -19.11 |
| `O=C(NCc1cccnc1)C1CC(=O)N(CC2CC2)C1` (configuration not stated) | -2.947 | -14.96 |
| `CN(Cc1nnc(-c2ccco2)o1)Cc1nc2c(s1)CCCC2` | 0.6545 | 2.307 |
| `COc1ccc(-c2cc(C3(O)CCOC(C)(C)C3)on2)cc1` (configuration not stated) | -0.2106 | 8.794 |
| `CN(Cc1ccc(F)cc1)C(=O)NCc1nnc2n1CCC2` | -2.595 | -1.79 |
| `CSC1(CNC(=O)NC(C)c2ccc(F)c(F)c2)CCOCC1` (configuration not stated) | -22.72 | -14.06 |
| `COCCn1ccnc1C1CCCN(c2cnccn2)C1` (configuration not stated) | -5.286 | -23.26 |
| `O=C(c1ccc2nncn2c1)N1CCCC(n2ccnc2)C1` (configuration not stated) | 12.06 | -11.18 |
| `COc1ccccc1C(=O)Nc1ccc([C@@H](O)[C@H]2COCC(=O)N2)cc1` | -15.81 | 3.387 |
| `O=C(Nc1cccs1)N(CCO)CCOCC(F)(F)F` | 10.78 | - |
| `CCOc1cccc(C2CC(=O)NCc3nc(N4CCCC4)sc32)c1` (configuration not stated) | -1.794 | -8.924 |
| `Cc1cc(-c2cnc(N3CCCC(C)C3)nc2-c2cccnc2C)on1` (configuration not stated) | -1.174 | -15.28 |
| `CC1CN(CC(=O)Nc2nncs2)CCN1Cc1nccn1C` (configuration not stated) | 6.511 | -8.797 |
| `CC(C)c1nsc(N2CCOCC2)n1` | -4.443 | 6.19 |
| `CCN(CC)C(=O)N1CCOCC1c1c(C)nn(C)c1C` (configuration not stated) | -6.451 | -0.5691 |
| `Cc1cccc2nc(-c3nc4c([nH]3)CCCNC4=O)cn12` | 7.555 | -20.17 |
| `CCc1c(C)nc(-n2nc(C3CC3)cc2NC(C)=O)[nH]c1=O` | -7.821 | -17.28 |
| `CC(C)(C)n1ncc2c1NC(=O)CSC2c1ccc2c(c1)OCCO2` (configuration not stated) | -4.289 | -3.04 |
| `COc1ccc(-c2nc(CN3CC(n4cc(C)cn4)C3)no2)cc1` | -5.505 | 11.65 |
| `c1cnc(N2CCCC(NCc3ccc(-n4ccnc4)cc3)C2)nc1` (configuration not stated) | -6.8 | -28.23 |

Some entries from above, unchanged:

COc1ccccc1-n1cc(C(=O)NCCCn2nc(C)nc2C)cn1 read ClpP1P2: -8.615%; Pks13 thioesterase: 0.4748%.
CSC1(CNC(=O)NC(C)c2ccc(F)c(F)c2)CCOCC1 (configuration not stated) read ClpP1P2: -22.72%; Pks13 thioesterase: -14.06%.
CS(=O)(=O)CCCNc1cccc(COC2CCCCC2)c1 read ClpP1P2: 3.225%; Pks13 thioesterase: 12.51%.
CC(C)(C)n1ncc2c1NC(=O)CSC2c1ccc2c(c1)OCCO2 (configuration not stated) read ClpP1P2: -4.289%; Pks13 thioesterase: -3.04%.
COCCN1CCN(c2cccc(C)n2)Cc2ccc(C)nc21 read ClpP1P2: 1.995%; Pks13 thioesterase: -8.967%.